Reference: PMC11374673, “Discovery of isoquinoline sulfonamides as allosteric gyrase inhibitors with activity against fluoroquinolone-resistant bacteria” (Nature Chemistry, 2024)
These are yes or no findings as the source states them, for the method shown. Some binding calls cover weakened binding; strength is not graded here.

Sequences of proteins named here, by UniProt entry; tags and fusion partners are left off.
UniProt P0AES4: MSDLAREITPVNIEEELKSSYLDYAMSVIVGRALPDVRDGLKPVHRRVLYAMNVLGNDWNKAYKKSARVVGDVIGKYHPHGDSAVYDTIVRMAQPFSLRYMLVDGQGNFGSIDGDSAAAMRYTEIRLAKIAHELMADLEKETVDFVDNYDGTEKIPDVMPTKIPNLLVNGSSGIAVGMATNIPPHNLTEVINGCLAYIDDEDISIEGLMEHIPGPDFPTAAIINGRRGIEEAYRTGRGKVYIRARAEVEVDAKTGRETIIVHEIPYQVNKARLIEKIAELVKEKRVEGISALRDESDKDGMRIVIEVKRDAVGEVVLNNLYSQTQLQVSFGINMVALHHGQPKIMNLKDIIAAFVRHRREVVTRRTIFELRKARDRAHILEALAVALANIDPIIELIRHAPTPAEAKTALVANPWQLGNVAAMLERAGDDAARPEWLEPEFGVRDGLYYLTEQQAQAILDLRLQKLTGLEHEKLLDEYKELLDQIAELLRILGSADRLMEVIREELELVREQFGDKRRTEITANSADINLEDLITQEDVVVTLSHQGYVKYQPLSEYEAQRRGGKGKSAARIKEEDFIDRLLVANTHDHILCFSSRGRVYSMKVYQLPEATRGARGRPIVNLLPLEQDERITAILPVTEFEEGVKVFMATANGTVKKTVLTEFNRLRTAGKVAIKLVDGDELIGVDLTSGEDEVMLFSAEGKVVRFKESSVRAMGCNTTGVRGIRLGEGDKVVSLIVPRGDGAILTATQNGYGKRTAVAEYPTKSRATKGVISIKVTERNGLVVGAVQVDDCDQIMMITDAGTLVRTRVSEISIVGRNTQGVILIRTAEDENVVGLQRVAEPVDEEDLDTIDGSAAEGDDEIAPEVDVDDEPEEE

Target: E. coli DNA gyrase subunit A (GyrA) (E. coli) (UniProt P0AES4)
Assay: cryo-EM structure; both purified

Q: “E. coli DNA gyrase subunit A (GyrA) (from UniProt P0AES4 1-875) (other; other documents disagree on this pair)” was tested. Which binding did it give?
A: binds
